# Results taken from PubChem BioAssay AID2685 (National Center for Advancing Translational Sciences (NCATS), 2010).
# The other results are listed elsewhere or left out. Further columns of the screen follow, without active or inactive calls. Compounds called inactive in the main read-out are mostly missing here. The note in brackets gives the kind of curve behind each potency; many fits are weak.
# Assay: qHTS Assay for Lipid Storage Modulators in Drosophila S3 Cells;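 as to cell number change: cells counted by Cell Tracker Red CMTPX staining in the red channel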
# Conditions: BODIPY lipid droplet fluorescence, 18-24 h; for cell number change: measured here: cell count max response, cells fed with added oleic acid
# Summary of the method: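 Drosophila S3 cells loaded with oleic acid (400 uM, as added) and compounds at several concentrations; lipid droplets imaged by 488-nm laser-scanning cytometry, 500–530 nm intensity and object ratio to cell channel. Percent activity normalized to 20 uM Triacsin C.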
# [1] = measured here: cell number channel AC50, cells fed with added oleic acid
# [2] = measured here: lipid fluorescence (Fed channel) AC50, cells fed with added oleic acid
Compound,cell number change,AC50 [1],AC50 [2]
CC(C)Cc1cc(C(=O)NCc2cccnc2)no1,1.41%,–,–
Cc1ccnc(SC2CC(=O)N(c3ccc(Cl)cc3)C2=O)n1 (centres undefined),32.6%,"32.6 µM [rising, single point]","9.2 µM [falling, single point]"
CCn1c(=O)c(CCC(=O)NCCN2CCOCC2)c(C)c2c(C)nn(-c3ccccc3)c21,22.7%,–,–
Cc1ccccc1Nc1sc(C(=O)Nc2cccc(Cl)c2)c(N)c1C(N)=O,-49.9%,"18.4 µM [falling, partial curve]","25.9 µM [falling, partial curve]"
CN(C)CCCNC(=O)/C(=C\c1ccc(-c2cccc([N+](=O)[O-])c2)o1)NC(=O)c1ccccc1,2.58%,–,"0.82 µM [falling, single point]"
CCC(C)N(CCNC(=O)c1ccc(NC2=NC3CS(=O)(=O)CC3S2)cc1)Cc1ccco1 (centres undefined),4.94%,–,–
Cc1cc(C(=O)NNC(=S)NC2CCCCC2)cs1,24.9%,"0.00517 µM [rising, full curve, poor fit]","1.46 µM [rising, full curve, poor fit]"
COc1ccccc1CNC(=O)CCC(=O)N1CCOc2ccc(Cl)cc21,-15.6%,–,–
COc1cccc(CC(=O)OCC(=O)NC2(C#N)CCCCC2)c1,4.06%,–,"25.9 µM [falling, single point]"
CCC(C)NC(=O)C1CCN(S(=O)(=O)c2cccc3nonc23)CC1 (centres undefined),-32.5%,"0.13 µM [falling, full curve, poor fit]",–
COc1ccc(C)cc1Nc1n[n+](C)c(-c2ccc(O)cc2O)s1,-7.49%,–,–
CCCCC(CC)C(=O)Nc1ccc(C#N)cc1 (centres undefined),5.65%,–,"20.6 µM [rising, single point]"
CCCCc1ccc(NC(=S)NCCCN2CCOCC2)cc1,88.9%,"29.1 µM [rising, single point]","6.51 µM [falling, single point]"
CC1CC2=C(C(=O)O1)C(c1ccccc1)Nc1ccccc1N2 (centres undefined),-1.73%,–,"0.13 µM [falling, full curve, poor fit]"
CCCOc1ccc(N2C(=O)CC(NCCNc3ccc(S(=O)(=O)CC)cc3)C2=O)cc1 (centres undefined),–,–,"6.51 µM [falling, single point]"
COc1cc(/C=N\NC(=O)CC(=O)NCCc2ccccc2)ccc1O,-7.13%,–,"20.6 µM [rising, single point]"
O=C(NCCNC(=O)c1ccccc1F)c1ccco1,21.1%,"4.61 µM [rising, single point]","5.62 µM [falling, single point]"
CCC(C)(C)c1ccc(OCCN2C(=O)NC(C)(C)C2=O)cc1,66.2%,"29.1 µM [rising, single point]",–
COc1ccc(CNC(=O)C2CCCN(S(=O)(=O)c3c(C)noc3/C=C/N(C)C)C2)cc1 (centres undefined),5.66%,–,–
CCOC(=O)C1=C(c2ccccc2)O/C(=C(\C(=O)OC)C(F)(F)F)S1,48.4%,"0.206 µM [rising, full curve, poor fit]",–
COCCn1c(C)cc(C(=O)COc2nc3ccccc3nc2C)c1C,-29.8%,–,"1.84 µM [rising, single point]"
O=C(O)c1cccc2c1C(=O)c1ccccc1-2,-44.3%,"0.92 µM [falling, full curve, poor fit]","1.03 µM [falling, full curve, poor fit]"
CNC(=O)COC(=O)COc1ccc2c(C)cc(=O)oc2c1,-48.6%,–,"0.184 µM [falling, full curve, poor fit]"
CN(CC(=O)N1CCc2ccccc21)S(=O)(=O)c1cccc2cccnc12,30%,"9.2 µM [rising, single point]","29.1 µM [rising, single point]"
COc1ccc(NC(=O)Cc2nnc(SCC(=O)Nc3nccs3)n2C)cc1,12.4%,–,–

Compound,cell number change,AC50 [1],AC50 [2]
O=C(NNC(=S)NC1CCCCC1)c1cccs1,29%,–,"16.4 µM [rising, partial curve, poor fit]"
COCC(=O)NCc1nc2ccccc2[nH]1,-5.4%,"1.84 µM [falling, partial curve, poor fit]","1.3 µM [falling, partial curve]"
Cn1cccc1/C=N/N1CCN(c2ccccc2)CC1,23.6%,–,–
O=C(Cc1cccs1)N1CCN(c2cccc(Cl)c2)CC1,-8.49%,–,"0.231 µM [falling, full curve, poor fit]"
O=C(NC(Cc1ccccc1)c1ccc2c(c1)OCCCO2)c1ccc(F)cc1 (centres undefined),75.7%,"29.1 µM [rising, single point]",–
CCCCNC(=O)c1onc(CSc2cccc(OC)c2)c1C(=O)O,-24.3%,–,"29.1 µM [falling, single point]"
O=C(Nc1ccc2c(c1)OCO2)c1cnn2c(C(F)(F)F)cc(-c3ccco3)nc12,-3.97%,–,"0.092 µM [rising, full curve, poor fit]"
Cc1cc(/C([O-])=C(/C(=S)Nc2ccc(F)cc2)[n+]2ccccc2)c(C)n1-c1ccc(F)cc1,-27%,–,"16.4 µM [falling, partial curve, poor fit]"
COc1ccc(CNc2ccccc2SC)cc1OC,12%,–,"0.058 µM [falling, full curve, poor fit]"
CCOC(=O)c1c(NC(=O)CSc2nnc(N)s2)sc(C)c1-c1ccc(C)cc1,-25.1%,–,"23.1 µM [falling, partial curve, poor fit]"
COc1ccc(/C=C(/NC(=O)c2ccccc2)C(=O)N2CCOCC2)cc1OC,-5.26%,–,–
O=[N+]([O-])c1ccc(N/N=C/c2ccccc2)cc1,-19.9%,–,"32.6 µM [falling, single point]"
COc1ccc(Cl)cc1CSc1ncn[nH]1,19.1%,–,"2.59 µM [rising, partial curve, poor fit]"
Cc1cc(C)cc(N(CC(=O)NCC2CCCO2)C(=O)CCC(=O)Nc2nccs2)c1 (centres undefined),-14.1%,–,–
CCOC(=O)C1CCN(S(=O)(=O)Cc2ccccc2)C1=O (centres undefined),6.8%,–,"1.64 µM [falling, full curve]"
Nn1c(Cc2cccc3ccccc23)nnc1SCc1c(F)cccc1Cl,31.9%,"2.06 µM [rising, partial curve]",–
CS(=O)(=O)N1CCC(C(=O)NCc2ccc(Cl)cc2Cl)CC1,25.5%,"4.11 µM [rising, full curve, poor fit]",–
COc1ccccc1NC(=O)Nc1cccnc1,5.37%,–,"0.13 µM [falling, full curve, poor fit]"
CC(=O)c1ccc(Nc2ccc([N+](=O)[O-])c3nonc23)cc1,-1.47%,–,"29.1 µM [falling, single point]"
CCOC(=O)C1CN(S(=O)(=O)c2cccs2)c2ccc(CC(=O)OC)cc2O1 (centres undefined),-32.9%,"1.26 µM [falling, full curve, poor fit]","1.58 µM [falling, full curve, poor fit]"
COc1ccccc1OC(C)C(=O)N1CC(=O)Nc2ccccc21 (centres undefined),22.2%,–,–
Cc1ccc(S(=O)(=O)O/N=C2/CCCc3occc32)cc1,4.74%,"0.103 µM [rising, full curve, poor fit]",–
CN1CCN(C(=S)SCC(=O)N2CCCc3ccccc32)CC1,–,–,"16.4 µM [rising, partial curve]"
CC(=O)O/N=C(/c1nonc1N)N(C)C,-41.9%,"29.1 µM [falling, single point]",–

# Looked up by structure from the list above (2):
Compound,cell number change,AC50 [1],AC50 [2]
CCn1c(=O)c(CCC(=O)NCCN2CCOCC2)c(C)c2c(C)nn(-c3ccccc3)c21,22.7%,–,–
O=C(Nc1ccc2c(c1)OCO2)c1cnn2c(C(F)(F)F)cc(-c3ccco3)nc12,-3.97%,–,"0.092 µM [rising, full curve, poor fit]"
